# Measured values as given in the supplement of paper PMC10338343.
# ± gives the standard deviation. This is a selection; strong and weak results do not stand in their true shares. The uncertainty is large for many entries.
# System: MIWI (PIWIL1) piRISC loaded with piRNA #2 (30 nt)
# Test: pre-steady-state target cleavage rate (min^-1); MIWI and MILI are mouse PIWI proteins and EfPiwi is from a freshwater sponge; tags in brackets are library labels; higher = faster piRNA-guided slicing of the target
# Details: guide: piRNA #2 5'p-UUAGGUAACCCAGUAGAUCCAGAGGAAUUC; auxiliary factor: 500 nM mouse GTSF1
# Summary of the method: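 In HEPES–potassium acetate buffer at 33 °C, […] transcribed, DNA-blocked target RNA library was mixed with 1 nM active affinity-purified piRISC carrying one synthetic guide, with or without 500 nM GTSF1 partner protein, for 0–8 or 0–960 min. Uncleaved targets were sequenced and normalised to depth and to weakly complementary targets; three trials were pooled and k3 was capped at 0.0001 min^-1. The pre-steady-state cleavage rate followed from a burst-and-steady-state fit.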
# 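Also: 1 nM active piRISC with 0.1 nM target library at 33 °C single turnover.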
row,Sequence,pre-steady-state target cleavage rate
1,CUUAAGGAGUGGAUCUACUUGGGUUACCUAA,0.000138 ± 0.034
2,CUUAAGGAGACGAUCUAGUGGGUUACCUAA,0.000935 ± 0.0058
3,CUUAAGGAGACCUUCUACUGGCUAACCUAA,0.00122 ± 0.0083
4,CUUAAGGAGACCUAGUACUGGGUAUACCUAA,0.00246 ± 0.0045
5,CUUAAGGAGACCUAGAACUGGGUUUGCUAA,0.000537 ± 0.012
6,CUUAAGGAGACGAUCUACUGGGAUACCUAA,0.000343 ± 0.018
7,GAAUUCCUCUGGAUCAUGUGGGUUACCUAA,0.000852 ± 0.01
8,CUUAAGGAGAGGAUCUUCUGCGUUACCUAA,0.00197 ± 0.0042
9,CUUAAGGAGACGAUCUACUGGCAUACCUAA,0.00063 ± 0.012
10,CUUAAGGAGAGGAUCUUCUGGGUUACCUAA,0.002 ± 0.0058
11,CUUAAGGAGACCUACUGCUGGGUUACCUAA,0.00125 ± 0.0047
12,CAAUUCCUCUGGAUCUAGACCCAAUGGAUA [g14:g29:cont:t1A],< 0.0001
13,CAAUUCCUCUCGAUCUACUGCGUUACCUAA,0.907 ± 0.084
14,CAAUUCCUCUAGAUCUACUGGGUUACCUAA,0.807 ± 0.047
15,CUUAAGGAGUGGAUCUUCUGGCUUACCUAA,0.000408 ± 0.024
16,CUUAAGGACUGGAUCAACUGGGUUACCAAA,0.0143 ± 0.016
17,CUUAAGGAGUGCUACUACUGGGUUACCUAA,0.00411 ± 0.0074
18,CUUAAGGAGAGGAUCUACAGGGUUACCUAA,0.00312 ± 0.004
19,CUUAAGGAGACCUACUACUGGGCUACCUAA,0.000965 ± 0.015
20,CUUAAGGACUGGAACUACUGGGUUAGCUAA,0.0152 ± 0.017
21,CUUAAGGAGACCUUCUACUGGGUGACCUAA,0.00128 ± 0.0091
22,CUUAAGGAGUGGAUCAACUGGGAUACCUAA,0.00133 ± 0.0083
23,CUUAAGGAGAGGAUCUACACCGUUACCUAA,0.00184 ± 0.0027

row,Sequence,pre-steady-state target cleavage rate
1,CUUAAGGAGACCUACUACUGGGUUACCCUAA,0.0013 ± 0.0045
2,CUUAAGGAGACGAUCUACUGCGUUACCAAA,0.000872 ± 0.0034
3,CUUAAGGAGACCUACUUCUGGCUUACCUAA,0.000973 ± 0.007
4,CUUAAGGAGAGGAUCUACCUGGGUUACCUAA,0.000779 ± 0.011
5,CUUAAGGAGACGAUCUACUGGGUUACCUAG [g2:g19:cont:t1G],0.00343 ± 0.0043
6,CUUAAGGACUGGAUCUACUGGGUUAGGUAA,0.00227 ± 0.015
7,CUUAAGGAGUGGAUCUACUGGCAUACCUAA,0.000352 ± 0.024
8,CUUAAGGAGACGAUCUACUGGGUUUGCUAA,0.000231 ± 0.0081
9,CUUAAGGAGACGAUCUACUUGGUUACCUAA,0.0013 ± 0.0043
10,CUUAAGGAGACCUUCUACUGGGUUAGCCUAA,0.00178 ± 0.0066
11,CUUAAGGAGAGGAUCACUGGGUUACCUAA,0.00026 ± 0.02
12,CUUAAGGACUGGUUCUUCUGGGUUACCUAA,0.00506 ± 0.011
13,CUUAAGGAGACCAUCUUCUGGGAUACCUAA,0.0018 ± 0.006
14,CAAUUCCUCUGGAUCUCUGGGUUACCUAA,0.00445 ± 0.0046
15,CUUAAGGAGUGGAUCUACUGGGAUAGCUAA,0.000277 ± 0.02
16,CUUAAGGACUGCAUCUACUGGGUUAGCUAA,0.00126 ± 0.023
17,CUUAAGGAGACCUAGAUGUGGGUUACUAA,0.00016 ± 0.021
18,CUUAAGGACUCCAUCUACUGGGUUACCUAA,0.00288 ± 0.0044
19,CUUAACCUCUGGAUCUACUCCCUUACCUAA,0.00105 ± 0.013
20,CUUAAGCUGUGGAUCUACUGGGUUUCCUAA,0.0403 ± 0.019
21,CAAUUCGUCUGGAUCUACUGCGUUACCUAA,0.376 ± 0.044
22,CUUAAGGAGACCUAGUACUGGGUUACCGAA,0.000539 ± 0.0087
23,CUUAAGGAGUGGAACUACUGGGUUAGCUAA,0.00445 ± 0.0092

row,Sequence,pre-steady-state target cleavage rate
1,CUUUUCCUCUGGAUCUACUGGAGUUACCUAA,0.00361 ± 0.0042
2,CUUAAGGAGACCAUCUACUGGGAUACCUAA,0.00087 ± 0.0065
3,CUUAAGGAGACGUUCUACAGGGUUACCUAA,0.00106 ± 0.0083
4,CUUAUCCUCUGGAUCUACUGCGUUACCUAA,0.498 ± 0.055
5,CUUAAGGAGACCAUCUACUCGGUAACCUAA,0.000485 ± 0.0092
6,GAAUUCCUCUCGUUCUACUGGGUUACCUAA,0.793 ± 0.058
7,CUUAAGGAGACGAUCUAGUGGGUUUCCUAA,0.000884 ± 0.0084
8,CUUAAGGACUGGAACUACUGGGUUACCAAA,0.00633 ± 0.013
9,CUUAACCUCUGGAUCUAUCUGGGUUACCUAA,0.002 ± 0.0057
10,CUUAAGGAGACGAUCUAGUGGGUUACCUUA,0.00116 ± 0.01
11,GAAUUCCUCUGGAUCUGACUGGGUUACCUAA,0.00311 ± 0.0046
12,CUUAAGGAGACCUUCUACUGGGUAACCAAA,0.00115 ± 0.01
13,CUUAAGGAGACCUACUACUGGGUUACACUAA,0.00247 ± 0.0041
14,CUUAAGGACUGCAUCUACUGGGUUACCUAA,0.0207 ± 0.022
15,CUUAAGGAGUCGAUCUACUGGGUUACCUAA,0.00342 ± 0.0049
16,CUUAAGGAGACCUAGUAACUGGGUUACCUAA,0.000581 ± 0.012
17,CUUAAGGAGACGAUCAACUGGGUAACCUAA,0.000121 ± 0.045
18,CUUAAGGUCUGGAUCUAGUCGGUUACCUAA,0.00286 ± 0.0067
19,CUUAAGGAGACCAUCUUCUGGGUAACCUAA,0.00127 ± 0.0054
20,CUUAAGGAGAGGAUCUACUGGCUUACCUAA,0.00487 ± 0.0067
21,CUUAAGGAGACGAUCUACUGGGAUUCCUAA,0.00153 ± 0.0063
22,CUUAUCCACUGCAUCUACUGGGUUACCUAA,0.314 ± 0.018
23,GAAUUCCUCUGGCAUCUACUGGGUUACCUAA,0.667 ± 0.17

row,Sequence,pre-steady-state target cleavage rate
1,CUUAAGGAGACCUACGACUGGGUUACCUAA,0.000493 ± 0.015
2,CUUAAGGACUGGAUCUACUGGUUACCUAA,0.000946 ± 0.028
3,CUUAAGGAGACCUAGUACUGGGUUACGUAA,0.000727 ± 0.0098
4,CUUAAGGAGACCUAGUACUGGGUUACGCUAA,0.000259 ± 0.015
5,CUUAAGGAGAGGAACUACUGGCUUACCUAA,0.000463 ± 0.021
6,CUUAAGGAGACCAUCUUCUCGGUUACCUAA,0.00116 ± 0.005
7,CAUUUCCACUGGAUCUACUGGGUUACCUAA,0.478 ± 0.058
8,CUUAAGGAGACCUUCUACUGGGUUACUCUAA,0.000151 ± 0.026
9,GAAUUCCUCAGGUUCUACUGGGUUACCUAA,0.539 ± 0.049
10,CUUAAGGAGACCAGCUACUGGGUUACCUAA,0.00323 ± 0.0053
11,CUUAAGGACUGGAUCUUCUGGCUUACCUAA,0.00508 ± 0.0097
12,CUUAAGGAGACCUUCUACUCGGUUACCUAA,0.00101 ± 0.0072
13,CUUAAGGAGACGAUAUACUGGGUUACCUAA,0.000831 ± 0.0066
14,CUUAAGGUCUGGAUCUACUGGGUUUGGAUA [g7:g23:cont:t1A],0.00105 ± 0.016
15,CUUAAGGAGUGGAUCAACUGGCUUACCUAA,0.00464 ± 0.0047
16,CUUAAGGACUGGAGUCUACUGGGUUACCUAA,0.0123 ± 0.019
17,CUUAAGGAGACCUUCUACUGGGUACCUAA,0.00169 ± 0.0048
18,CUUAAGGACUGCAUCUACUGGGUUACCUUA,0.00303 ± 0.013
19,CUUAAGGAGUGGAUCUACUGGGAAUCCUAA,0.00149 ± 0.0081
20,CUUAAGGACUGGUUCUACUCGGUUACCUAA,0.0093 ± 0.014
21,CUUAAGGAGACCUUCUACUGUGGUUACCUAA,0.00218 ± 0.0036
22,CUUUUCCUCUGCAUCUACUGGGAUACCUAA,0.128 ± 0.018

# Reformatted with bars between the fields: entries from further up.
row | Sequence | pre-steady-state target cleavage rate
2 | CUUAAGGAGACGAUCUAGUGGGUUACCUAA | 0.000935 ± 0.0058
18 | CUUAAGGAGAGGAUCUACAGGGUUACCUAA | 0.00312 ± 0.004
7 | CUUAAGGAGUGGAUCUACUGGCAUACCUAA | 0.000352 ± 0.024
11 | CUUAAGGAGAGGAUCACUGGGUUACCUAA | 0.00026 ± 0.02
3 | CUUAAGGAGACGUUCUACAGGGUUACCUAA | 0.00106 ± 0.0083
